PubChem BioAssay AID743454 | Peter MacCallum Cancer Centre, 2014
The deposit covers about 18,000 reagents; shown is an unselected part. 450 of them (2.5%) count as active. 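Single biological run; no consistent viability z cut-off exists, so the class columns, not z-scores, define the calls.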 Reagent sequences are not shown.

- Purpose: 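Genes whose loss kills vorinostat-resistant colon cancer cells under vorinostat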 (primary screen)
- System: human HCT116-VR colon cancer cells, selected for vorinostat resistance
- Knock-down reagent: siRNA pool against human genes, 40 nM siRNA pool
- Time to read-out: vorinostat for 24 h, read-out about 72 h after transfection
- Conditions: vorinostat at 2.5 µM final
- Detection: 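Two measures, CellTiter-Fluor viability and luminescent caspase 3/7 activity, each as fold change against same-plate mock wells, mean of duplicates, then screen-wide robust z-score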
- Reading the numbers: viability robust z-score: higher = more viable cells than screen typical; caspase robust z-score: higher = more caspase 3/7 activity than screen typical
- Active means: 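Hits are knock-downs in viability class RV1/RV2 or caspase class CA1/CA2, excluding ones that killed cells in the no-drug cell-count arm; hits then retested with single siRNAs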

After knock-down of ACAN (aggrecan) the results were viability hit class no change; caspase hit class no change; viability robust z-score -0.7; caspase robust z-score 1.27; inactive.
For TKTL2 (transketolase like 2), the values are viability hit class no change; caspase hit class no change; viability robust z-score -0.96; caspase robust z-score 0.01; inactive.
MICU2 (mitochondrial calcium uptake 2) showed viability hit class no change; caspase hit class no change; viability robust z-score 0.62; caspase robust z-score -0.24; inactive.
RBMY1F (RNA binding motif protein Y-linked family 1 member F) gave viability hit class no change; caspase hit class no change; viability robust z-score 0.17; caspase robust z-score -0.5; inactive.
HECW2 gave viability hit class no change; caspase hit class no change; viability robust z-score -0.23; caspase robust z-score 0.22; inactive.
Knock-down of SEPTIN2 (septin 2) resulted in: viability hit class no change; caspase hit class no change; viability robust z-score 1; caspase robust z-score 0.12; inactive.
With knock-down of DMTN (dematin actin binding protein), the record shows viability hit class no change; caspase hit class no change; viability robust z-score 0.86; caspase robust z-score -0.4; inactive.
Against CDH16 (cadherin 16) the deposit lists viability hit class no change; caspase hit class no change; viability robust z-score -1.73; caspase robust z-score 3.46; inactive.
Knock-down of COL24A1 (collagen type XXIV alpha 1 chain) resulted in: viability hit class no change; caspase hit class no change; viability robust z-score 1.25; caspase robust z-score -0.98; inactive.
With knock-down of OR5H6 (olfactory receptor family 5 subfamily H member 6) the results were viability hit class no change; caspase hit class no change; viability robust z-score 1.32; caspase robust z-score -0.56; inactive.
For RAC1 (Rac family small GTPase 1) the deposit lists viability hit class no change; caspase hit class no change; viability robust z-score 0.2; caspase robust z-score -0.54; inactive.
CKAP5 (cytoskeleton associated protein 5) gave viability hit class no change; caspase hit class no change; viability robust z-score -4.19; caspase robust z-score 1.13; inactive.

Laid out differently: results already given.
{"target gene":"OR5H6 (olfactory receptor family 5 subfamily H member 6)","viability hit class":"no change","caspase hit class":"no change","viability robust z-score":1.32,"caspase robust z-score":-0.56,"outcome":"inactive"}
{"target gene":"RAC1 (Rac family small GTPase 1)","viability hit class":"no change","caspase hit class":"no change","viability robust z-score":0.2,"caspase robust z-score":-0.54,"outcome":"inactive"}
{"target gene":"CKAP5 (cytoskeleton associated protein 5)","viability hit class":"no change","caspase hit class":"no change","viability robust z-score":-4.19,"caspase robust z-score":1.13,"outcome":"inactive"}

The list goes on.
For LCN1 (lipocalin 1), the entry reads viability hit class no change; caspase hit class no change; viability robust z-score -0.36; caspase robust z-score -0.43; inactive.
SOX3 (SRY-box transcription factor 3) showed viability hit class no change; caspase hit class no change; viability robust z-score 0.08; caspase robust z-score -0.78; inactive.
For TBC1D4 (TBC1 domain family member 4) the deposit lists viability hit class no change; caspase hit class no change; viability robust z-score -0.05; caspase robust z-score 2.97; inactive.
MAPK14 (mitogen-activated protein kinase 14) showed viability hit class no change; caspase hit class no change; viability robust z-score 0.38; caspase robust z-score -0.42; inactive.
After knock-down of SMCR8 (SMCR8-C9orf72 complex subunit) the results were viability hit class no change; caspase hit class no change; viability robust z-score -2.25; caspase robust z-score 4.88; inactive.
With knock-down of TAMM41, the record shows viability hit class no change; caspase hit class no change; viability robust z-score -0.4; caspase robust z-score -0.61; inactive.
After knock-down of SRGN (serglycin), the screen gave viability hit class no change; caspase hit class no change; viability robust z-score 0.16; caspase robust z-score -0.8; inactive.
Depletion of NPAS4 (neuronal PAS domain protein 4) came out at: viability hit class no change; caspase hit class no change; viability robust z-score -0.55; caspase robust z-score -0.18; inactive.
Silencing of CHML (CHM like Rab escort protein) gave: viability hit class no change; caspase hit class no change; viability robust z-score -3.76; caspase robust z-score -0.74; inactive.
